Source: the supplement of paper PMC10849652
Some of the results follow.

Amino acid sequences for entries named in this document (tags omitted). A change or cut given only in a name is not applied to a line headed by its entry.
UniProt Q13838, whole entry, looked up: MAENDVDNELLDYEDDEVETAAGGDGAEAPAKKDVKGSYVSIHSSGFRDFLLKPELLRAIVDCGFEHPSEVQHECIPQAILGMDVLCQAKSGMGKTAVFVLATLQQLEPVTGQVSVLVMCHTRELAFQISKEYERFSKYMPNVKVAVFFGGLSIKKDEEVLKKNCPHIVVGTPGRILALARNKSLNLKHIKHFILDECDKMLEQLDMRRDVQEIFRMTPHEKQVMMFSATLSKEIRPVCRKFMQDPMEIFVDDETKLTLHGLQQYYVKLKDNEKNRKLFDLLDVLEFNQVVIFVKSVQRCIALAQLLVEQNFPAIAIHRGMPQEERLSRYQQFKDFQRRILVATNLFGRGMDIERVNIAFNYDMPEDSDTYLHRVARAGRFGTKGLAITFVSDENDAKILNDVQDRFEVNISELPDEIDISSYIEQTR
UniProt Q9GZP9: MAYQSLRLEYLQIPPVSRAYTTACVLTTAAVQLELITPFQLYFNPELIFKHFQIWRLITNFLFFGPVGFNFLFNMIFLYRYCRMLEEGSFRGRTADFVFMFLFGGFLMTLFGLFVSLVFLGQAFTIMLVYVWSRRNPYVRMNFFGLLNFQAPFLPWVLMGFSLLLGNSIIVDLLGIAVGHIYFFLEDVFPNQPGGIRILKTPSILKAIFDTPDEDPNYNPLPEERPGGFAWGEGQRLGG
UniProt Q14203, whole entry, looked up: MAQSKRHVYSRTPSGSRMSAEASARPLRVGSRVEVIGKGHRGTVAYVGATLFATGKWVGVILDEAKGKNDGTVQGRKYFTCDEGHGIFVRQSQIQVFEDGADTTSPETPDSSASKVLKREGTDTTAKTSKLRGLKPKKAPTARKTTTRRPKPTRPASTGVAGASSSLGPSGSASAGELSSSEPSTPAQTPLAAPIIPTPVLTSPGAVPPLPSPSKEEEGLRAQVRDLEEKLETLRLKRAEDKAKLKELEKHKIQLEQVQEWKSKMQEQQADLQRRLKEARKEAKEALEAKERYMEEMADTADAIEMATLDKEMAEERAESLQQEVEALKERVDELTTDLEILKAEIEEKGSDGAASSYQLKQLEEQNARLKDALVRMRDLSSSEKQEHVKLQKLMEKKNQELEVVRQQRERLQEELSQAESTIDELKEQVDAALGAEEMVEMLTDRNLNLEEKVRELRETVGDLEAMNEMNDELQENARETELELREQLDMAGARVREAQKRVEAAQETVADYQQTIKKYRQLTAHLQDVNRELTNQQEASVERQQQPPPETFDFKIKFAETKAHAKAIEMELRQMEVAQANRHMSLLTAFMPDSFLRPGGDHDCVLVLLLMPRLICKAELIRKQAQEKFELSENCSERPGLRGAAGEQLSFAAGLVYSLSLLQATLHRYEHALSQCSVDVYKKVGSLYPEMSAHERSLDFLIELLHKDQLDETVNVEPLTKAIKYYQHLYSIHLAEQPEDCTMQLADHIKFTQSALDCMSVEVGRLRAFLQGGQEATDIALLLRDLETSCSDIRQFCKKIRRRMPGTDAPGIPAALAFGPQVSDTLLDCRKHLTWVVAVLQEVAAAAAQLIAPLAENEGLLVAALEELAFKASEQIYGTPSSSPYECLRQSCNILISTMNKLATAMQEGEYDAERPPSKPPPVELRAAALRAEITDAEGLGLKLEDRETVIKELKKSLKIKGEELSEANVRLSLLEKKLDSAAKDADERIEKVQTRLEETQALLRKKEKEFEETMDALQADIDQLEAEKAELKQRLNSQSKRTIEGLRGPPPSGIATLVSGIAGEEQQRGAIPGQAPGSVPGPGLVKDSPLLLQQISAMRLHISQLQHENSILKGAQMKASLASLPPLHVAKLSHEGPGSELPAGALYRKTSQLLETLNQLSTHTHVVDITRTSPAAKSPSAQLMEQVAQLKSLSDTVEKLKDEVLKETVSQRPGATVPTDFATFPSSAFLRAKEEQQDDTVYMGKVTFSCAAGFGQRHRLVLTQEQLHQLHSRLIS
UniProt P51397: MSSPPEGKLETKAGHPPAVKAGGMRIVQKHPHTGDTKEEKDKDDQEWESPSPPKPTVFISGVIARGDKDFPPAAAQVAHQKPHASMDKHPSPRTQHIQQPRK
UniProt P0CG12: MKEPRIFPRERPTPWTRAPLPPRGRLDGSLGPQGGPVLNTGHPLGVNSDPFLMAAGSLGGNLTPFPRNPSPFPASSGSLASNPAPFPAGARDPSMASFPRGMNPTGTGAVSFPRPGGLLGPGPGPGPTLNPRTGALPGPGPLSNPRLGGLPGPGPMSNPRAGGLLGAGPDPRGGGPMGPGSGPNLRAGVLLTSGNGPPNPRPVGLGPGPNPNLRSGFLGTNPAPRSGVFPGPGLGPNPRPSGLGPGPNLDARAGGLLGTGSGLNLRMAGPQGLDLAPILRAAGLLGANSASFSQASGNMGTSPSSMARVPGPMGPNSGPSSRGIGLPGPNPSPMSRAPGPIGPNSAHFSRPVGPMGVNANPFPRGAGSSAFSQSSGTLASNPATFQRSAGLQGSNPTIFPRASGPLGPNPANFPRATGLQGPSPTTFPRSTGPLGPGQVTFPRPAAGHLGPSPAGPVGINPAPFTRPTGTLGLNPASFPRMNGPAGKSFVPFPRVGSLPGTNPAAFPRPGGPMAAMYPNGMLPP
UniProt Q96GG9: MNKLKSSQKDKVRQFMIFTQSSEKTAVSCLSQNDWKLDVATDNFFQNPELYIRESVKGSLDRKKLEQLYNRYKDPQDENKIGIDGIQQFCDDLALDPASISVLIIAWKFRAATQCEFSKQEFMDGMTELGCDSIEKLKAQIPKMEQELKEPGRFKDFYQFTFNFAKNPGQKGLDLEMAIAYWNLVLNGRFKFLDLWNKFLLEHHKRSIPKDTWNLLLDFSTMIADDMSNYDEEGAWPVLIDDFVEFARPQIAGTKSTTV
UniProt P61803: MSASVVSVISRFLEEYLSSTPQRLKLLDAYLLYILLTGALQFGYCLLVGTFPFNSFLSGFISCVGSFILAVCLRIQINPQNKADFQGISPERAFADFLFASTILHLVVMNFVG
UniProt Q9NWV4: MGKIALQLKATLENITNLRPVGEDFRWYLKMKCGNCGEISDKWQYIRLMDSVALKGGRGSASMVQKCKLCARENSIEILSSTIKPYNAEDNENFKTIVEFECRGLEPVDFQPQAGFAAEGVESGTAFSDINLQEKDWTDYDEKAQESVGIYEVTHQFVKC
UniProt Q58WW2: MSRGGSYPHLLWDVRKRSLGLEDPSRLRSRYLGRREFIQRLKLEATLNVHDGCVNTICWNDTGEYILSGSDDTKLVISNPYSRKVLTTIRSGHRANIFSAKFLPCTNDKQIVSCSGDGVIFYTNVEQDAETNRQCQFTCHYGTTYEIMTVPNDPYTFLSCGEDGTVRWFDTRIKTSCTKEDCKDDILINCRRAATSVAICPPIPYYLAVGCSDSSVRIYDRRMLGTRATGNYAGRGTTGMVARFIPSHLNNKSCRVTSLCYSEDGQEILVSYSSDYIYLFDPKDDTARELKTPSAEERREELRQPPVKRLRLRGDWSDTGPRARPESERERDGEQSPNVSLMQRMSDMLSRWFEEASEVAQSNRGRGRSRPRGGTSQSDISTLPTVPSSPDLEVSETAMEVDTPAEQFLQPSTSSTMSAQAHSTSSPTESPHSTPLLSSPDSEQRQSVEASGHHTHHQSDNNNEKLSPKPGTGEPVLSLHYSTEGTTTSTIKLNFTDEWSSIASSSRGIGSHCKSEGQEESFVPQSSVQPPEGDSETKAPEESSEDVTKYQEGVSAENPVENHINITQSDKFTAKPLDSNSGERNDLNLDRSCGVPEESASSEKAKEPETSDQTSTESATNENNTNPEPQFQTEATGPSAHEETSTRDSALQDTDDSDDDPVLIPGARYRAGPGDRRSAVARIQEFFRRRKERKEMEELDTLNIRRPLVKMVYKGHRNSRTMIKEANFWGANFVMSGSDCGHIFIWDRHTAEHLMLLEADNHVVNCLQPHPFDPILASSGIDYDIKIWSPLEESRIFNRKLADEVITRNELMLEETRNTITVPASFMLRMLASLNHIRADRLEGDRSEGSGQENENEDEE
UniProt Q16643: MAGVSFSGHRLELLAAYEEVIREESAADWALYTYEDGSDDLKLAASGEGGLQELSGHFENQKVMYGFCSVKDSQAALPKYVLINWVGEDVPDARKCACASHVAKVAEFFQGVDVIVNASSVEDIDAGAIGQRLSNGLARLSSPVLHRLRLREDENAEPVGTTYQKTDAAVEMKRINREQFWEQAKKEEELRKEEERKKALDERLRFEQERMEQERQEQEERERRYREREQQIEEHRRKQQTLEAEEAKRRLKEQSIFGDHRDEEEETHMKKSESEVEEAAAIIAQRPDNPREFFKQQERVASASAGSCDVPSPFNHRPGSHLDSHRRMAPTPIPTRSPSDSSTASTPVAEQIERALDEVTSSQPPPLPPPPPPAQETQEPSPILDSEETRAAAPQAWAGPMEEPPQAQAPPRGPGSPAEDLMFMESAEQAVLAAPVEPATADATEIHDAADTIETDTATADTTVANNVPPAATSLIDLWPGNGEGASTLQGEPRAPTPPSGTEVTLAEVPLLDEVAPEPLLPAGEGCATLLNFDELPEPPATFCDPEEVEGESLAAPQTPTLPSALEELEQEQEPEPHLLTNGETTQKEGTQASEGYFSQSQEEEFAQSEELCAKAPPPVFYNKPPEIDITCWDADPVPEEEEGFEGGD
UniProt Q13561, whole entry, looked up: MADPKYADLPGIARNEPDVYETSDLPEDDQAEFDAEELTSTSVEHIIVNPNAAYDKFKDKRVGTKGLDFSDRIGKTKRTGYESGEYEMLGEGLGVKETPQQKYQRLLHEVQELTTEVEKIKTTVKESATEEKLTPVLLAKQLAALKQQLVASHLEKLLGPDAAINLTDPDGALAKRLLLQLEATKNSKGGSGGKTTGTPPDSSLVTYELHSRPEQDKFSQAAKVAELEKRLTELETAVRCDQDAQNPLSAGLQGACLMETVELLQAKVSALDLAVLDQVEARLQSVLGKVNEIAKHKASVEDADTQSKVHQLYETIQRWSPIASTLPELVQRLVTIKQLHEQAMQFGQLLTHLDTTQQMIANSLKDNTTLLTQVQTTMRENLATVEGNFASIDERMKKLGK
UniProt Q9H1C7: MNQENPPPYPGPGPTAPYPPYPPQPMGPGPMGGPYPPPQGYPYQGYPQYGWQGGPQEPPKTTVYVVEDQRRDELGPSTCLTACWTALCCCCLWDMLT
UniProt Q13206, whole entry, looked up: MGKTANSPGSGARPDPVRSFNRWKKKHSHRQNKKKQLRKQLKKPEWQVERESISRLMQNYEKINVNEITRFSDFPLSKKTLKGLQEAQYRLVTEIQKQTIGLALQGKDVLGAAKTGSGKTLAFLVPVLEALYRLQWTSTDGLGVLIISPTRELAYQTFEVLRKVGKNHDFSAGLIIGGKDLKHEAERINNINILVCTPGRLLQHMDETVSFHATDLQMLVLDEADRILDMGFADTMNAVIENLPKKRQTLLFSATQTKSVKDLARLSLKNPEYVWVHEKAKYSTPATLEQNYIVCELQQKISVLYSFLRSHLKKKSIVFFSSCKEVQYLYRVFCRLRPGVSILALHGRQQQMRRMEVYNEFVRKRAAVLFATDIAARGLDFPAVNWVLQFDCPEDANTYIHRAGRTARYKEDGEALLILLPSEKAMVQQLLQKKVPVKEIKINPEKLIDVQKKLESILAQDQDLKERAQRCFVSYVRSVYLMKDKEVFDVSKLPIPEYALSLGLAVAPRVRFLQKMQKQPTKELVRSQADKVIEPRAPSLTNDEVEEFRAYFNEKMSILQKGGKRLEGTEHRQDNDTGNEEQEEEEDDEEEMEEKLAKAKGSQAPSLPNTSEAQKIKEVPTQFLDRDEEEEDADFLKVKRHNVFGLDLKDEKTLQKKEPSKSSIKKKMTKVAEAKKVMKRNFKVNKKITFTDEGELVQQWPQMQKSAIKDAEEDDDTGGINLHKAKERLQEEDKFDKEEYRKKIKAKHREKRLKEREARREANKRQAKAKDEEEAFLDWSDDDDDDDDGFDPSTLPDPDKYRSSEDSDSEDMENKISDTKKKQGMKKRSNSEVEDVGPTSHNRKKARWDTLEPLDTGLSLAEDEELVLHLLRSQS
UniProt O75935, whole entry, looked up: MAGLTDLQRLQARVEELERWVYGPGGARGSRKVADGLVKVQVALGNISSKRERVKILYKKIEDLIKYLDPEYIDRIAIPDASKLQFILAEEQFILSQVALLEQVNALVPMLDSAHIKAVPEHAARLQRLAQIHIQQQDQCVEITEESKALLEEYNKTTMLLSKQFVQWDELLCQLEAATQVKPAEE

Assays:
Experiment in all cases: log2 fold change, soluble protein after heating vs DMSO (PISA); higher = thermal stabilisation; K562 lysate, 10 uM; active = over 0.2 and 3.5 SD of the protein, either way, in both replicates (recomputed)
alvocidib = compound: CN1CC[C@H](c2c(O)cc(O)c3c(=O)cc(-c4ccccc4Cl)oc23)[C@H](O)C1 [alvocidib]
How it was run: (§1)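 Quantification was by TMTpro 16plex LC-MS/MS with equalised channel sums, applied to the supernatant after 21,000xg for 90 min. Samples were crude K562 extract at 1 mg/mL protein in PBS pH 7.4 with 1 mM MgCl2, treated with 10 μM compound for 30 min, heated for 3 min across 48°C-58°C, pooled and brought to 0.5% NP-40 at 4°C. Values are log-two fold changes in thermal stability relative to solvent controls, from duplicates.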

Tubastatin A = compound: CN1CCc2c(c3ccccc3n2Cc2ccc(C(=O)NO)cc2)C1 [Tubastatin A]
How it was run: as §1

[1] = compound: CNC(=O)C1=CC=CC=C1NC2=NC(=NC=C2Cl)NC3=C(C=C(C=C3)N4CCOCC4)OC
How it was run: as §1

defactinib = compound: CNC(=O)c1ccc(Nc2ncc(C(F)(F)F)c(NCc3nccnc3N(C)S(C)(=O)=O)n2)cc1 [defactinib]
How it was run: as §1

[2] = compound: CNc1nc(-c2ccc3c(N)n[nH]c3c2)cc(N2C[C@@H](C(=O)NC3CCCCC3)CC[C@H]2C)n1
How it was run: as §1

encorafenib = compound: COC(=O)N[C@@H](C)CNc1nccc(-c2cn(C(C)C)nc2-c2cc(Cl)cc(NS(C)(=O)=O)c2F)n1 [encorafenib]
How it was run: as §1

[3] = compound: COC(=O)[C@H](CCSC)NC(=O)C1=C(C=C(C=C1)NC[C@H](CS)N)C2=CC=CC=C2
How it was run: as §1

alisertib = compound: COc1cc(Nc2ncc3c(n2)-c2ccc(Cl)cc2C(c2c(F)cccc2OC)=NC3)ccc1C(=O)O [alisertib]
How it was run: as §1

[4] = compound: COc1cc2nc(-c3cc(F)ccc3O)nc(N[C@@H]3CNC[C@H]3C(C)(C)O)c2cc1OC
How it was run: as §1

gefitinib = compound: COc1cc2ncnc(Nc3ccc(F)c(Cl)c3)c2cc1OCCCN1CCOCC1 [gefitinib]
How it was run: as §1

lapatinib = compound: CS(=O)(=O)CCNCc1ccc(-c2ccc3ncnc(Nc4ccc(OCc5cccc(F)c5)c(Cl)c4)c3c2)o1 [lapatinib]
How it was run: as §1

pictilisib = compound: CS(=O)(=O)N1CCN(Cc2cc3nc(-c4cccc5[nH]ncc45)nc(N4CCOCC4)c3s2)CC1 [pictilisib]
How it was run: as §1

crizotinib = compound: C[C@@H](Oc1cc(-c2cnn(C3CCNCC3)c2)cnc1N)c1c(Cl)ccc(F)c1Cl [crizotinib]
How it was run: as §1

[5] = compound: C[C@H](C1=CC=C(C=C1)C(=O)NC2=C3C=CNC3=NC=C2)N
How it was run: as §1

duvelisib = compound: C[C@H](Nc1ncnc2nc[nH]c12)c1cc2cccc(Cl)c2c(=O)n1-c1ccccc1 [duvelisib]
How it was run: as §1

gandotinib = compound: Cc1cc(Nc2cc(CN3CCOCC3)c3nc(C)c(Cc4ccc(Cl)cc4F)n3n2)n[nH]1 [gandotinib]
How it was run: as §1

tozasertib = compound: Cc1cc(Nc2cc(N3CCN(C)CC3)nc(Sc3ccc(NC(=O)C4CC4)cc3)n2)n[nH]1 [tozasertib]
How it was run: as §1

doramapimod = compound: Cc1ccc(-n2nc(C(C)(C)C)cc2NC(=O)Nc2ccc(OCCN3CCOCC3)c3ccccc23)cc1 [doramapimod]
How it was run: as §1

bafetinib = compound: Cc1ccc(NC(=O)c2ccc(CN3CC[C@H](N(C)C)C3)c(C(F)(F)F)c2)cc1Nc1nccc(-c2cncnc2)n1 [bafetinib]
How it was run: as §1

[6] = compound: Cc1cccc(CC(=O)N2CCc3c2ccc(-c2cn(C)c4ncnc(N)c24)c3F)n1
How it was run: as §1

Measured: log2 fold change

DDX55 (UniProt Q8NHQ9)
inactive: alvocidib -0.079 | Tubastatin A 0.012 | [1] 0.021 | defactinib 0.028 | [2] -0.013 | encorafenib 0.036 | [3] 0.057 | alisertib -0.012 | [4] -0.014 | gefitinib -0.003 | lapatinib -0.007 | pictilisib 0.048 | crizotinib -0.023 | [5] -0.062 | duvelisib 0.029 | gandotinib -0.064 | tozasertib -0.002 | doramapimod 0.018 | bafetinib -0.004 | [6] 0.112

DDX39B isoform 2 (UniProt Q13838)
inactive: alvocidib -0.016 | Tubastatin A -0.001 | [1] 0.005 | defactinib -0.012 | [2] 0.001 | encorafenib -0.022 | [3] 0.028 | alisertib 0.008 | [4] -0.02 | gefitinib 0.007 | lapatinib 0.005 | pictilisib -0.007 | crizotinib -0.004 | [5] -0.038 | duvelisib 0.007 | gandotinib -0.009 | tozasertib 0.015 | doramapimod 0.002 | bafetinib -0.009 | [6] 0.015

DDX20 (UniProt Q9UHI6)
inactive: alvocidib 0.042 | Tubastatin A -0.213 | [1] -0.001 | defactinib -0.03 | [2] -0.026 | encorafenib 0.076 | [3] 0.01 | alisertib 0.016 | [4] -0.006 | gefitinib 0.025 | lapatinib -0.041 | pictilisib 0.024 | crizotinib -0.088 | [5] 0.029 | duvelisib 0.008 | gandotinib -0.137 | tozasertib -0.065 | doramapimod 0.015 | bafetinib -0.016 | [6] 0.054

DERL2 (UniProt Q9GZP9)
inactive: alvocidib 0.05 | Tubastatin A 0.071 | [1] 0.004 | defactinib -0.06 | [2] 0.147 | encorafenib -0.062 | [3] 0.044 | alisertib -0.036 | [4] 0.082 | gefitinib 0.038 | lapatinib 0.097 | pictilisib -0.13 | crizotinib -0.026 | [5] -0.044 | duvelisib 0.004 | gandotinib -0.045 | tozasertib 0.068 | doramapimod -0.084 | bafetinib -0.104 | [6] 0.276

DCTN1 (UniProt Q14203)
inactive: alvocidib 0.03 | Tubastatin A -0.048 | [1] 0.009 | defactinib 0.008 | [2] -0.02 | encorafenib 0.008 | [3] 0.119 | alisertib -0.019 | [4] 0.01 | gefitinib -0.002 | lapatinib -0.005 | pictilisib -0.021 | crizotinib -0.005 | [5] 0.027 | duvelisib 0.001 | gandotinib -0.029 | tozasertib -0.002 | doramapimod -0.013 | bafetinib -0.023 | [6] -0.005

Quoted at random: 2 records from the list.
DDX55 (UniProt Q8NHQ9)
inactive: alvocidib -0.079 | Tubastatin A 0.012 | [1] 0.021 | defactinib 0.028 | [2] -0.013 | encorafenib 0.036 | [3] 0.057 | alisertib -0.012 | [4] -0.014 | gefitinib -0.003 | lapatinib -0.007 | pictilisib 0.048 | crizotinib -0.023 | [5] -0.062 | duvelisib 0.029 | gandotinib -0.064 | tozasertib -0.002 | doramapimod 0.018 | bafetinib -0.004 | [6] 0.112

DDX39B isoform 2 (UniProt Q13838)
inactive: alvocidib -0.016 | Tubastatin A -0.001 | [1] 0.005 | defactinib -0.012 | [2] 0.001 | encorafenib -0.022 | [3] 0.028 | alisertib 0.008 | [4] -0.02 | gefitinib 0.007 | lapatinib 0.005 | pictilisib -0.007 | crizotinib -0.004 | [5] -0.038 | duvelisib 0.007 | gandotinib -0.009 | tozasertib 0.015 | doramapimod 0.002 | bafetinib -0.009 | [6] 0.015

(continued)

DAP (UniProt P51397)
inactive: alvocidib -0.025 | Tubastatin A 0.043 | [1] 0.007 | defactinib 0.031 | [2] 0.019 | encorafenib -0.017 | [3] -0.035 | alisertib -0.019 | [4] 0.018 | gefitinib -0.071 | lapatinib -0.009 | pictilisib -0.086 | crizotinib 0.032 | [5] -0.019 | duvelisib 0.031 | gandotinib 0.065 | tozasertib -0.002 | doramapimod -0.025 | bafetinib -0.055 | [6] 0.042

DERPC (UniProt P0CG12)
inactive: alvocidib 0.031 | Tubastatin A 0.157 | [1] -0.015 | defactinib 0.135 | [2] 0.072 | encorafenib 0.053 | [3] 0.023 | alisertib 0.059 | [4] -0.074 | gefitinib -0.16 | lapatinib 0.142 | pictilisib 0.017 | crizotinib 0.273 | [5] 0.041 | duvelisib -0.027 | gandotinib 0.094 | tozasertib -0.002 | doramapimod 0.377 | bafetinib -0.133 | [6] -0.021

DCUN1D1 (UniProt Q96GG9)
inactive: alvocidib 0.008 | Tubastatin A -0.04 | [1] -0.021 | defactinib -0.021 | [2] -0.074 | encorafenib -0.037 | [3] 0.039 | alisertib 0.016 | [4] -0.015 | gefitinib -0.026 | lapatinib 0 | pictilisib -0.006 | crizotinib 0.023 | [5] 0.006 | duvelisib 0.009 | gandotinib -0.008 | tozasertib -0.035 | doramapimod -0.001 | bafetinib 0.026 | [6] -0.034

DAD1 (UniProt P61803)
inactive: alvocidib -0.086 | Tubastatin A 0.042 | [1] 0.047 | defactinib 0.196 | [2] 0.033 | encorafenib 0.159 | [3] -0.149 | alisertib 0.086 | [4] -0.076 | gefitinib -0.035 | lapatinib -0.064 | pictilisib 0.069 | crizotinib -0.068 | [5] -0.102 | duvelisib 0.164 | gandotinib 0.022 | tozasertib -0.04 | doramapimod 0.083 | bafetinib -0.126 | [6] 0.055

CZIB (UniProt Q9NWV4)
inactive: alvocidib 0.001 | Tubastatin A 0.033 | [1] 0.001 | defactinib -0.022 | [2] -0.031 | encorafenib 0 | [3] -0.091 | alisertib -0.016 | [4] -0.042 | gefitinib -0.076 | lapatinib 0.025 | pictilisib 0.027 | crizotinib 0.08 | [5] 0.058 | duvelisib 0.028 | gandotinib 0 | tozasertib 0 | doramapimod -0.017 | bafetinib 0 | [6] -0.044

DCAF6 isoform 3 (UniProt Q58WW2)
inactive: alvocidib -0.028 | Tubastatin A 0.015 | [1] -0.008 | defactinib 0.009 | [2] 0.051 | encorafenib 0.04 | [3] -0.021 | alisertib 0.016 | [4] -0.008 | gefitinib -0.032 | lapatinib 0.028 | pictilisib -0.022 | crizotinib 0.014 | [5] 0.058 | duvelisib 0.063 | gandotinib -0.045 | tozasertib -0.004 | doramapimod -0.005 | bafetinib -0.047 | [6] -0.031

DBN1 (UniProt Q16643)
inactive: alvocidib 0.018 | Tubastatin A -0.014 | [1] 0.025 | defactinib 0.016 | [2] 0.054 | encorafenib -0.019 | [3] -0.041 | alisertib -0.015 | [4] 0.007 | gefitinib 0.018 | lapatinib -0.02 | pictilisib 0.011 | crizotinib 0.015 | [5] 0.019 | duvelisib 0.021 | gandotinib 0.005 | tozasertib 0.032 | doramapimod -0.02 | bafetinib -0.018 | [6] -0.053

DCTN2 isoform 3 (UniProt Q13561)
inactive: alvocidib -0.023 | Tubastatin A 0.036 | [1] -0.008 | defactinib 0.004 | [2] 0.014 | encorafenib -0.011 | [3] 0 | alisertib 0 | [4] 0.002 | gefitinib 0.004 | lapatinib -0.01 | pictilisib -0.048 | crizotinib 0.032 | [5] -0.073 | duvelisib 0.012 | gandotinib 0.043 | tozasertib 0.014 | doramapimod 0.004 | bafetinib -0.008 | [6] 0.006

CYSTM1 (UniProt Q9H1C7)
inactive: alvocidib -0.038 | Tubastatin A 0.127 | [1] -0.019 | defactinib 0.066 | [2] 0.202 | encorafenib 0.161 | [3] -0.215 | alisertib -0.057 | [4] 0.036 | gefitinib 0.156 | lapatinib -0.019 | pictilisib -0.178 | crizotinib -0.122 | [5] -0.027 | duvelisib -0.078 | gandotinib 0.105 | tozasertib 0.172 | doramapimod 0.154 | bafetinib 0.206 | [6] 0.035

DDX10 (UniProt Q13206)
inactive: alvocidib -0.007 | Tubastatin A -0.074 | [1] -0.002 | defactinib 0.013 | [2] 0.045 | encorafenib 0.116 | [3] 0.052 | alisertib -0.041 | [4] 0.033 | gefitinib -0.037 | lapatinib -0.224 | pictilisib -0.114 | crizotinib 0.035 | [5] 0.037 | duvelisib 0.036 | gandotinib -0.063 | tozasertib -0.04 | doramapimod -0.157 | bafetinib 0.12 | [6] -0.026

DCTN3 (UniProt O75935)
inactive: alvocidib 0.041 | Tubastatin A -0.018 | [1] 0.012 | defactinib 0.011 | [2] -0.028 | encorafenib 0.003 | [3] 0.048 | alisertib 0.003 | [4] -0.007 | gefitinib -0.019 | lapatinib -0.019 | pictilisib 0.009 | crizotinib 0.008 | [5] 0.016 | duvelisib -0.025 | gandotinib -0.109 | tozasertib 0.03 | doramapimod 0.032 | bafetinib -0.022 | [6] -0.024
